Here are results for 1 molecule from patent US8183201B2 (priority 2006, dated 2012).

Molecules are shown by their SMILES.

This experiment deals with Human prostate adenocarcinoma PC-3 cells. More on the design: species or system SCID mice. Conditions: mouse, in vivo, 1.5 mg/kg.

Regarding `NCCCC(O)(P(=O)(O)O)P(=O)(O)O` [Alendronate, alendronate, reference compound], the “tumor-induced increase in the serum calcium concentration (hypercalcemia)” value is on record as “inhibited a tumor-induced increase in the serum calcium concentration”. Besides, the “tumor growth in legs (in words)” value (sc) is reported as “did not inhibit the tumor growth in legs”.
